Source: doi:10.1371/journal.pone.0140310, primary screening data, rounded.

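The test systems are human melanoma cell lines, treated with a pair of drugs for 72 h and then stained and imaged. The read-out is the fraction of cleaved-PARP-positive nuclei, in % of that fraction in the DMSO control; 200 means twice the control level of this apoptosis marker. Concentrations were fixed for each drug; these are the higher of two levels. The file gives one value for each pair and line, without errors, so small differences may be noise. Basal and induced levels differ widely between cell lines.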
Only some of the drugs and lines screened are listed, without regard to their results.

Drugs:
CHIR-265: Cn1c(Nc2ccc(C(F)(F)F)cc2)nc2cc(Oc3ccnc(-c4ncc(C(F)(F)F)[nH]4)c3)ccc21 at 0.4 µM
erlotinib: C#Cc1cccc(Nc2ncnc3cc(OCCOC)c(OCCOC)cc23)c1 at 4 µM
lestaurtinib: C[C@]12O[C@H](C[C@]1(O)CO)n1c3ccccc3c3c4c(c5c6ccccc6n2c5c31)CNC4=O at 0.02 µM
temozolomide: Cn1nnc2c(C(N)=O)ncn2c1=O at 10 µM
GW441756: Cn1cc(/C=C2\C(=O)Nc3cccnc32)c2ccccc21 at 2 µM
KU-55933: O=c1cc(-c2cccc3c2Sc2ccccc2S3)oc(N2CCOCC2)c1 at 5 µM
STA-4783: CN(NC(=O)CC(=O)NN(C)C(=S)c1ccccc1)C(=S)c1ccccc1 at 0.03 µM
AZD7762: NC(=O)Nc1cc(-c2cccc(F)c2)sc1C(=O)N[C@H]1CCCNC1 at 0.1 µM
bortezomib: CC(C)C[C@H](NC(=O)[C@H](Cc1ccccc1)NC(=O)c1cnccn1)B(O)O at 0.005 µM

| Drugs | UACC-62 | A2058 | SK-MEL-30 | MeWo | WM3526 |
|---|---|---|---|---|---|
| CHIR-265 + erlotinib | 308 | 257 | 111 | 145 | 828 |
| CHIR-265 + STA-4783 | 214 | 2370 | 244 | 1940 | 665 |
| AZD7762 + GW441756 | 55.3 | 199 | 203 | 219 | 345 |
| CHIR-265 + temozolomide | 321 | 504 | 273 | 99.5 | 595 |
| KU-55933 + GW441756 | 148 | 55.1 | 91.9 | 57.5 | 123 |
| bortezomib + KU-55933 | 254 | 2860 | 318 | 3300 | 2880 |
| erlotinib + AZD7762 | 160 | 438 | 267 | 140 | 939 |
| GW441756 + lestaurtinib | 134 | 162 | 79.3 | 98.6 | 191 |
| erlotinib + lestaurtinib | 345 | 202 | 77.5 | 123 | 277 |
| erlotinib + KU-55933 | 59.7 | 236 | 118 | 141 | 120 |
| GW441756 + CHIR-265 | 1090 | 166 | 67.3 | 102 | 595 |
| AZD7762 + lestaurtinib | 131 | 281 | 291 | 253 | 569 |
| lestaurtinib + bortezomib | 161 | 1120 | 649 | 1810 | 1370 |
| GW441756 + bortezomib | 394 | 3440 | 686 | 1460 | 3430 |
| bortezomib + AZD7762 | 140 | 1320 | 353 | 2120 | 3210 |
| erlotinib + GW441756 | 83.6 | 177 | 153 | 76.3 | 129 |
| temozolomide + lestaurtinib | 183 | 1070 | 186 | 100 | 264 |
| erlotinib + temozolomide | 152 | 474 | 228 | 185 | 118 |
| KU-55933 + lestaurtinib | 109 | 170 | 43.5 | 106 | 242 |
| CHIR-265 + AZD7762 | 161 | 280 | 179 | 218 | 1140 |
| lestaurtinib + CHIR-265 | 378 | 105 | 103 | 54.8 | 529 |
| STA-4783 + KU-55933 | 255 | 2970 | 63.6 | 573 | 127 |
| CHIR-265 + KU-55933 | 224 | 195 | 132 | 74.1 | 516 |
| temozolomide + KU-55933 | 247 | 677 | 383 | 20.2 | 82.8 |
| KU-55933 + AZD7762 | 18.9 | 221 | 259 | 62.0 | 453 |
| temozolomide + GW441756 | 200 | 478 | 78.4 | 110 | 106 |
| erlotinib + bortezomib | 235 | 1980 | 341 | 1510 | 1600 |
| bortezomib + STA-4783 | 135 | 2020 | 308 | 2070 | 961 |
| STA-4783 + GW441756 | 160 | 1200 | 149 | 875 | 87.7 |
| bortezomib + temozolomide | 196 | 1650 | 1460 | 2350 | 2600 |
| STA-4783 + AZD7762 | 104 | 3570 | 299 | 2990 | 420 |
| erlotinib + STA-4783 | 110 | 1870 | 231 | 753 | 227 |

Some entries from above, unchanged:

| Drugs | UACC-62 | A2058 | SK-MEL-30 | MeWo | WM3526 |
|---|---|---|---|---|---|
| erlotinib + lestaurtinib | 345 | 202 | 77.5 | 123 | 277 |
| erlotinib + AZD7762 | 160 | 438 | 267 | 140 | 939 |